Experimental data published in PubChem BioAssay AID2685 (National Center for Advancing Translational Sciences (NCATS), 2010).
The other results are listed elsewhere or left out. Further columns of the screen follow, without active or inactive calls. Most of these compounds were active or inconclusive in the main read-out, so they are no random draw. Words in brackets tell the shape of the fitted curve; partial curves, single points and poor fits give uncertain potencies.

Assay: qHTS Assay for Lipid Storage Modulators in Drosophila S3 Cells;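 as to cell number change: cells counted by Cell Tracker Red CMTPX staining in the red channel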
Details: BODIPY lipid droplet fluorescence, 18-24 h; for cell number change: measured here: cell count max response, cells fed with added oleic acid
Procedure, shortened: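 Drosophila S3 cells loaded with oleic acid (400 uM, as added) and compounds at several concentrations; lipid droplets imaged by 488-nm laser-scanning cytometry, 500–530 nm intensity and object ratio to cell channel. Percent activity normalized to 20 uM Triacsin C.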

[1] = measured here: lipid fluorescence (Fed channel) AC50, cells fed with added oleic acid
[2] = measured here: cell number channel AC50, cells fed with added oleic acid

SMILES | cell number change [%] | AC50 [1] | AC50 [2]
CCCCOP(=O)(c1ccc(N(C)C)cc1)C(O)c1ccccc1F (centres undefined) | -8.9 |  | 
CC(C)CCc1c(O)nc(SCC(C)C)[nH]c1=O | -26.8 | 20.6 µM [falling, partial curve] | 
Cc1ccccc1Nc1nc(N)nc(CSc2nncn2C)n1 |  | 0.326 µM [rising, full curve] | 0.206 µM [rising, full curve]
O=C(CSc1nnc(-c2cc(-c3cccs3)nc3ccccc23)o1)NC1CCCCC1 | -0.845 | 2.91 µM [rising, partial curve] | 
CSCCC(NS(=O)(=O)c1ccccc1F)C(=O)N1CC=C(c2ccccc2)CC1 (centres undefined) | 79.8 | 18.4 µM [rising, partial curve] | 11.6 µM [rising, partial curve]
Cc1nc2ccccc2n1CC(O)Cn1c2ccccc2c2ccccc21 (centres undefined) | -19.4 | 14.6 µM [rising, partial curve] | 
Cc1ccc(S(=O)(=O)CCc2nc3ccccc3[nH]2)cc1C | 13 |  | 
Cc1cccc(CSc2nnc(-c3ccco3)o2)c1 | -36.9 |  | 
C/C(Nc1cccc(F)c1)=C(/C#N)C(N)=O | 32.3 |  | 29.1 µM [rising, single point]
Cc1nnc(SCC(=O)NC2CCCc3c2cnn3-c2ccccc2F)o1 (centres undefined) | 5.51 |  | 1.64 µM [rising, partial curve, poor fit]
CC(C)Oc1ccc(C(=O)O)cc1 | -1.1 | 0.58 µM [rising, single point] | 
CC1=CC(=O)OC1Cc1ccncc1 (centres undefined) | -3.26 | 0.291 µM [rising, full curve, poor fit] | 
Cc1ccc(OCCN2C(=O)C(=O)c3cc(C)ccc32)cc1 | -44.4 | 16.4 µM [falling, single point] | 20.6 µM [falling, single point]
O=C(CSc1nnc(CNC(=O)c2ccc(F)cc2)o1)NCc1ccc2c(c1)OCO2 | 21.2 |  | 0.0366 µM [rising, full curve, poor fit]
COc1ccccc1NC(=O)C1=C(C)Nc2nnnn2C1c1ccccc1OC (centres undefined) | 3.28 | 29.1 µM [rising, single point] | 
O=C(NCc1ccncc1)C(=O)C1C(=O)Nc2ccccc21 (centres undefined) | 1.21 | 0.13 µM [falling, full curve, poor fit] | 
COc1ccc2[nH]c(=O)c(CN(C)C(=O)c3ccncc3)cc2c1 | -8.78 | 1.03 µM [falling, full curve, poor fit] | 0.461 µM [falling, full curve]
C#CCSc1nc(N)c2c(n1)OC(N)=C(C#N)C2c1cccnc1 (centres undefined) | 29.9 | 4.61 µM [rising, full curve] | 1.64 µM [rising, full curve, poor fit]
O=C(Nc1c2c(nn1-c1ccc(F)cc1)CS(=O)C2)c1ccc2c(c1)OCO2 (centres undefined) | 9.3 | 0.517 µM [rising, full curve, poor fit] | 
CCCN1CCN(CCNC(=O)Nc2cc(C)ccc2C)CC1 | 13.9 |  | 7.31 µM [rising, single point]
CSCC[C@H](NC(=O)OC(C)(C)C)C(=O)NCC1CCC(C(=O)O)CC1 (some centres undefined) | -16.8 |  | 

Four records drawn at random from the list so far:
SMILES | cell number change [%] | AC50 [1] | AC50 [2]
O=C(CSc1nnc(-c2cc(-c3cccs3)nc3ccccc23)o1)NC1CCCCC1 | -0.845 | 2.91 µM [rising, partial curve] | 
Cc1cccc(CSc2nnc(-c3ccco3)o2)c1 | -36.9 |  | 
CC(C)CCc1c(O)nc(SCC(C)C)[nH]c1=O | -26.8 | 20.6 µM [falling, partial curve] | 
Cc1ccccc1Nc1nc(N)nc(CSc2nncn2C)n1 |  | 0.326 µM [rising, full curve] | 0.206 µM [rising, full curve]

(next part)

SMILES | cell number change [%] | AC50 [1] | AC50 [2]
CN(c1ccccc1)S(=O)(=O)c1cccc(NC(=O)c2ccc(=O)[nH]c2)c1 | 15.8 | 0.651 µM [rising, full curve, poor fit] | 
Cc1cc(C)c(C#N)c(SCC(=O)Nc2ccc(S(=O)(=O)Nc3ncccn3)cc2)n1 | 21.1 | 18.4 µM [falling, single point] | 
CCn1ncc(/C=N/NS(=O)(=O)c2ccc(Cl)cc2)c1C | -15.5 | 4.11 µM [rising, full curve, poor fit] | 
Cc1ccc(CNC(=O)c2ccc(S(=O)(=O)N3CCCCC3)cc2)cc1 | 191 |  | 
CCc1[nH]nc(C(=O)N2CCCC(N3CCN(c4ccccc4C)CC3)C2)c1C (centres undefined) | -41.1 | 29.1 µM [rising, single point] | 32.6 µM [falling, partial curve, poor fit]
O=C(CCN1C(=O)c2ccccc2C1=O)Nc1ccc(-c2nc3ccccc3o2)cc1 | 53.1 | 1.16 µM [rising, full curve] | 5.8 µM [rising, full curve, poor fit]
N#Cc1ccc(Oc2cccc3cccnc23)c([N+](=O)[O-])c1 | 3.55 |  | 
CCCCn1c(N)c(N(CCOC)C(=O)c2ccc(Br)s2)c(=O)[nH]c1=O | 39.8 |  | 16.4 µM [rising, single point]
Cn1cccc1/C=N/NC(=O)CNc1cccc2ccccc12 | -1.71 |  | 
COc1ccc(CCN2C(=O)CC(C(C)c3ccccc3)C2=O)cc1OC (centres undefined) | 38.9 |  | 7.31 µM [rising, partial curve, poor fit]
COc1ccc(OC)c(NC(=O)CSc2nn3c(=O)c(C)nnc3s2)c1 | 20.1 | 6.51 µM [rising, single point] | 
CCCCn1c(N)c(N(CCC(C)C)C(=O)c2cccc(-n3cnnn3)c2)c(=O)[nH]c1=O | -7.63 |  | 4.11 µM [falling, single point]
CCOc1cc(C=O)ccc1OCCn1c([N+](=O)[O-])cnc1C | -30.5 |  | 1.64 µM [falling, full curve, poor fit]
COc1cc(-c2cc(C(=O)Nc3ccc(S(N)(=O)=O)cc3)c3ccccc3n2)cc(OC)c1OC | 26.3 |  | 
CCOC(=O)C1CCN(c2c([N+](=O)[O-])c(C(Cl)Cl)nn2-c2ccccc2)CC1 |  | 0.651 µM [rising, single point] | 
O=c1c2c(nc3nc(CCc4ccccc4)[nH]n13)CCC2 |  | 6.51 µM [falling, single point] | 
CCC(CC)C(=O)Nc1c2c(nn1-c1ccc(OC)cc1)CS(=O)(=O)C2 | 161 |  | 
COCCN(CCOC)S(=O)(=O)c1ccc(C(=O)NCCCN2CCOCC2)cc1 | 1.98 |  | 
Cn1c(=O)[nH]c(=O)c2c1nc(N1CCCC1)n2CCCSc1nnnn1-c1ccccc1 | -17.2 | 20.6 µM [falling, single point] | 
O=C1c2ccccc2NC(c2ccc(O)cc2)N1/N=C/c1ccc(O)cc1 (centres undefined) | 4.37 | 29.1 µM [rising, single point] | 
CC1(C)CC2(CCO1)OC(=O)CC2C(=O)Nc1ccc(Cl)cc1[N+](=O)[O-] (centres undefined) | -8.26 | 0.58 µM [falling, full curve, poor fit] | 

SMILES | cell number change [%] | AC50 [1] | AC50 [2]
CC1CN(C(=O)c2cccc(S(=O)(=O)Nc3cc(Cl)ccc3Cl)c2)CC(C)O1 (centres undefined) |  | 18.4 µM [rising, partial curve] | 
O=C(c1ccc(=O)[nH]c1)N(Cc1ccco1)C1(C(=O)NC2CCCCC2)CCCCC1 |  | 0.58 µM [falling, single point] | 
COCCN(C(=O)CC1OC(=O)c2ccccc21)c1c(N)n(Cc2ccccc2)c(=O)[nH]c1=O (centres undefined) | 3.03 | 29.1 µM [falling, partial curve, poor fit] | 
COc1cccc(-n2nnnc2SCC(=O)NCCc2ccccc2)c1 | 50.5 | 0.58 µM [rising, partial curve] | 6.51 µM [rising, partial curve]
C=CCN(c1ccccc1)S(=O)(=O)c1ccc2c(c1)oc(=O)n2C | -8.95 | 0.00461 µM [falling, full curve, poor fit] | 
O=C(O)CSc1nc2ccccc2c(=O)[nH]1 | -8.02 |  | 0.146 µM [falling, full curve, poor fit]
O=C(NC(Cc1ccccc1)C(=O)O)/C(=C\c1ccccc1)NC(=O)c1ccc(Br)o1 (centres undefined) | 1.76 | 7.31 µM [rising, partial curve, poor fit] | 
Cc1cccc(N(C)C(=O)c2cnn(-c3ccccc3)c2C)c1 | 14.4 |  | 
CC(=O)NS(=O)(=O)c1ccc(NC(=O)/C=C/c2ccccc2)cc1 | -2.62 | 6.51 µM [falling, partial curve, poor fit] | 
Cc1ccc(C(=O)NC2CCCCCC2)cc1S(=O)(=O)N1CCOCC1 | -12.9 | 1.3 µM [falling, full curve, poor fit] | 
Cc1cc(C(=O)CSc2cccc[n+]2[O-])c(C)n1-c1ccccc1 | 32.8 |  | 35.5 µM [rising, single point]
Cc1cc(NC(=O)C(C)SCC(=O)OCC(=O)N(C)c2ccccc2)no1 (centres undefined) | -43.1 | 20.6 µM [falling, single point] | 25.9 µM [falling, single point]
COC(=O)CC1=NN(c2ccc(OC)cc2)C(=O)/C1=C\c1ccc(Cl)cc1 | -9.31 | 2.31 µM [falling, partial curve, poor fit] | 
Cc1ccc(F)cc1NC(=O)CCc1c(C)[nH]c(=O)c(C#N)c1C | 2.63 |  | 0.146 µM [rising, partial curve, poor fit]
COc1cccc(COc2ccc3ccc(=O)oc3c2)c1 | 14.2 |  | 
CCOC(=O)c1c(S(=O)(=O)Nc2ccc(CN3CCC(C)CC3)cc2)c(C)n(C)c1C | 0.236 |  | 
CN(NC(=O)C1CC(=O)N(c2ccccc2)C1)C1=NS(=O)(=O)c2ccccc21 (centres undefined) | 2.72 | 0.461 µM [falling, partial curve, poor fit] | 0.461 µM [falling, single point]
O=C(Nc1ccc2ccccc2c1)/C(=C/c1cccc(Br)c1)NC(=O)c1ccco1 | 19.2 | 23.1 µM [rising, single point] | 
O=C(O)CC1COc2ccccc2N1S(=O)(=O)c1ccc(Br)cc1 (centres undefined) | -15.7 | 29.1 µM [rising, single point] | 
